Measurements as given in PubChem BioAssay AID445 (National Center for Advancing Translational Sciences (NCATS), 2006).
The other results are listed elsewhere or left out. Further columns of the screen follow, without active or inactive calls. Most of these compounds were active or inconclusive in the main read-out, so they are no random draw. Words in brackets tell the shape of the fitted curve; partial curves, single points and poor fits give uncertain potencies.

Experiment: IkB Signaling
Conditions: ABC-DLBCL IkBa-CBG/CBR dual luciferase ratio (green luciferase fused to IkBa over red control in OCI-Ly3 lymphoma cells), 4 h
Outline: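 In this assay, an IκBα–CBG68 fusion accumulates when IKK-driven degradation is blocked; native CBR normalizes for cell number. OCI-Ly3 cells were treated 4 h with compound and doxycycline, then green and red light read after Chroma-Glo addition.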

[1] = measured here: control luc red channel unless noted

With CCOc1ccccc1NC(=O)c1nc2nc(C)cc(C(F)F)n2n1 the AC50 [1] was 2.51 µM [falling, partial curve].

In the case of COc1cccc(N2CCN(C(=O)C3CCN(S(=O)(=O)c4c(C)noc4C)CC3)CC2)c1, the AC50 [1] was 25.1 µM [falling, partial curve, poor fit].

For COc1cccc(-c2nc(CS(=O)(=O)CC(=O)Nc3c(C)cc(C)cc3C)c(C)o2)c1, the AC50 [1] was 31.6 µM [falling, single point].

With O=C(C1CC1)N1CCc2cc(Br)cc(S(=O)(=O)NCC3COc4ccccc4O3)c21 (stereo unspecified) the AC50 [1] was 25.1 µM [falling, partial curve].

In the case of CCOC(=O)N1CCc2c(sc3c2c(=O)n(-c2ccc(CC)cc2)c(=O)n3CC(=O)Nc2ccc(C)cc2)C1, the AC50 [1] was 6.31 µM [falling, partial curve].

For COc1ccc(Cl)c(Cn2c(NCc3ccco3)nc3c2c(=O)n(C)c(=O)n3C)c1, the AC50 [1] was 10 µM [falling, partial curve].

With CCNc1ccc(-c2nc(-c3ccco3)no2)cc1[N+](=O)[O-] the AC50 [1] was 1.58 µM [rising, partial curve, poor fit].

For O=C(NCCOCCn1c(=O)oc2ccccc21)Nc1ccc(Cl)cc1, the AC50 [1] was 12.6 µM [rising, partial curve].

With O=C(NCc1ccccn1)c1ccc(COc2ccc(Cl)cc2)o1 the AC50 [1] was 12.6 µM [falling, partial curve].

In the case of Cc1ccc2oc(=O)n(CCCOc3ccc(Cl)cc3)c2c1, the AC50 [1] was 20 µM [falling, partial curve].

With CNS(=O)(=O)c1cccc(C(=O)OCc2cc(Cl)cc3c2OCOC3)c1 the AC50 [1] was 25.1 µM [falling, partial curve].

With Cc1ccc2scc(N3CCN(c4ccc(F)cc4)CC3)c(=O)c2c1 the AC50 [1] was 31.6 µM [falling, single point].

For O=C1c2[nH]nc(-c3ccc(Br)cc3)c2C(c2cccc(O)c2)N1c1ccc(Cl)cc1 (stereo unspecified), the AC50 [1] was 7.94 µM [falling, full curve].

With CCOc1ccc(C(c2c(O)cc(C)n(CCOC)c2=O)N2CCC(C)CC2)cc1 (stereo unspecified) the AC50 [1] was 25.1 µM [falling, single point].

For COc1ccc(Cl)cc1NC(=O)CN(c1cccc(C)c1C)S(=O)(=O)c1ccccc1, the AC50 [1] was 7.94 µM [falling, full curve].

With O=C(CC1N=C2c3ccccc3N=C(SCc3ccccc3F)N2C1=O)NCc1ccc2c(c1)OCO2 (stereo unspecified) the AC50 [1] was 25.1 µM [falling, single point].

With COc1ccc(C2c3c(n(C)c4ccccc34)C(=O)N2CC(=O)Nc2ccccc2F)cc1 (stereo unspecified) the AC50 [1] was 31.6 µM [falling, single point].

With COc1ccc(CCNC(=O)c2ccc3c(c2)N(Cc2cccc(Cl)c2)C(=O)CS3)cc1OC the AC50 [1] was 12.6 µM [falling, partial curve].

In the case of Cc1ccc(CCNC(=O)c2ccc(CSCc3ccccc3Cl)o2)cc1, the AC50 [1] was 31.6 µM [falling, single point].

With COc1cc(OC)c(NS(=O)(=O)c2cc(-c3cnc(C)o3)ccc2OC)cc1Cl the AC50 [1] was 0.501 µM [rising, full curve, poor fit].

In the case of Cc1ccc(NC(=O)CN2C(=O)CCn3nc(-c4cccn4C)cc32)cc1, the AC50 [1] was 0.0794 µM [rising, full curve, poor fit].

In the case of CCOc1ccc(OCC)c(NC(=O)CCC(=O)N2CCOc3ccccc32)c1, the AC50 [1] was 7.94 µM [rising, partial curve].

With COCCCNc1nc2c(S(=O)(=O)c3ccc(C)c(C)c3)nnn2c2ccc(Cl)cc12 the AC50 [1] was 12.6 µM [falling, partial curve].

With Cc1ccc2oc(-c3cc(NC(=O)c4ccco4)ccc3Cl)nc2c1 the AC50 [1] was 31.6 µM [falling, single point].

For CCN(CC)CCNC(=O)c1nn(C)c2c1CS(=O)(=O)c1ccccc1-2, the AC50 [1] was 3.98 µM [falling, full curve, poor fit].

With CCOC(=O)c1ccc(N2C(=O)c3n[nH]c(-c4ccco4)c3C2c2ccc(O)c(OC)c2)cc1 (stereo unspecified) the AC50 [1] was 25.1 µM [falling, single point].

In the case of Cc1ccc(CNC(=O)c2nn(C)c3c2CS(=O)(=O)c2ccccc2-3)cc1, the AC50 [1] was 20 µM [falling, single point].

For O=C(Nc1nc2nc(-c3ccccc3)cc(=O)n2[nH]1)c1ccc(Cl)cc1, the AC50 [1] was 39.8 µM [falling, partial curve].

In the case of COC(=O)c1ccccc1NC(=O)COC(=O)c1ccc(C)c(NC(=O)c2ccco2)c1, the AC50 [1] was 7.94 µM [falling, partial curve].

In the case of Cc1ccc(-c2nc3nc(C)cc(Nc4ccccc4O)n3n2)cc1, the AC50 [1] was 12.6 µM [falling, partial curve].

In the case of NC(=O)c1cc(-c2ccccc2)sc1NC(=O)Cc1ccc(S(=O)(=O)N2CCOCC2)s1, the AC50 [1] was 2 µM [falling, full curve].

With CCOc1ccc(CCNC(=O)CCCn2c(=O)c3cccn3c3ccccc32)cc1 the AC50 [1] was 12.6 µM [falling, partial curve].

With Cc1ccc(Cl)cc1NC(=O)C(C)n1nc(-c2ccccc2)ccc1=O (stereo unspecified) the AC50 [1] was 31.6 µM [falling, single point].

For O=C(NCc1ccco1)c1sc(=S)n2c1[nH]c(=O)c1ccccc12, the AC50 [1] was 10 µM [falling, partial curve].

In the case of Cc1cc(NC(=O)COC(=O)C(Nc2ccc(C(F)(F)F)cc2Cl)C(C)C)no1 (stereo unspecified), the AC50 [1] was 12.6 µM [falling, partial curve].

With COc1ccc(C2=CC(c3ccccc3Cl)n3nc(-c4ccc(Cl)cc4)nc3N2)cc1 (stereo unspecified) the AC50 [1] was 6.31 µM [falling, partial curve].

With Cc1ccc(Cl)cc1N1CCN(C(=O)Cn2cnc3sc(C)c(S(=O)(=O)N4CCC(C)CC4)c3c2=O)CC1 the AC50 [1] was 10 µM [falling, partial curve].

With Cc1ccc2c(c1)c1c(n2CC(O)Cn2c(C)nc3ccccc32)/C(=N\O)CCC1 (stereo unspecified) the AC50 [1] was 12.6 µM [falling, partial curve].

With Cc1nc2nc(NCc3ccc(Cl)cc3)[nH]n2c(=O)c1Cc1ccccc1 the AC50 [1] was 31.6 µM [falling, partial curve].

In the case of CCCn1c(CCC(=O)Nc2ccc(OCC)cc2)nc2cccnc21, the AC50 [1] was 25.1 µM [falling, single point].

With CC(=O)Nc1ccc(-c2nc3c(C)cccc3[nH]2)cc1 the AC50 [1] was 15.8 µM [falling, partial curve].

In the case of COc1ccccc1N1CCN(CCCNC(=O)c2cnn(-c3cccc(Cl)c3)c2C2CCN(C(=O)OC(C)(C)C)CC2)CC1, the AC50 [1] was 31.6 µM [falling, partial curve].

For Cc1ccc(CN2C(=O)C3(c4ccccc42)N(c2cccc(F)c2)C(=O)CS3(=O)=O)cc1 (stereo unspecified), the AC50 [1] was 25.1 µM [falling, single point].

In the case of CCOc1ccc(CNC(=O)Cn2cc3c(n2)-c2c(oc(C(=O)N4CCOCC4)c2C)CC3)cc1, the AC50 [1] was 31.6 µM [falling, single point].

With CCc1cccc(-n2nnc(-c3nsc(NC(=O)c4cccs4)n3)c2C)c1 the AC50 [1] was 15.8 µM [rising, partial curve, poor fit].

For CC(=O)Nc1ccc2nc(-c3cc(C)ccc3C)[nH]c2c1, the AC50 [1] was 25.1 µM [rising, partial curve] [measured here: IkB-luc green channel].

For Cc1ccc(OCc2ccc(-c3nc(C#N)c(NCc4cccnc4)o3)o2)cc1, the AC50 [1] was 25.1 µM [falling, single point].

For COc1ccccc1N1CCN(S(=O)(=O)c2c(C)sc3ncn(CC(=O)N(C)c4ccc(Cl)cc4)c(=O)c23)CC1, the AC50 [1] was 10 µM [falling, partial curve].

With Cc1ccc2[nH]c(=O)c(CN(Cc3ccccc3)Cc3nnnn3C3CCCC3)cc2c1 the AC50 [1] was 1.26 µM [falling, full curve].

With Cc1c(C(=O)N2CCC(c3nc4ccccc4s3)CC2)oc2ccc(Cl)cc12 the AC50 [1] was 25.1 µM [falling, partial curve].

In the case of Cc1ccc2c(CC(=O)Nc3ccc(S(=O)(=O)N4CCCCC4)cc3)coc2c1, the AC50 [1] was 7.94 µM [falling, partial curve].

For Cc1ccc(Cl)cc1NC(=O)Cn1c(=O)oc2cc(S(=O)(=O)N3CCCC3)ccc21, the AC50 [1] was 1.26 µM [falling, full curve].

For Cc1ccc(-n2ncc3c(Nc4cccc(C)c4C)ncnc32)cc1, the AC50 [1] was 39.8 µM [falling, partial curve].

With Cc1ccc(NC(=O)c2cc(-c3ccc(Br)s3)nc3ccccc23)cc1F the AC50 [1] was 3.16 µM [rising, partial curve, poor fit].

With Cc1cc(C)c2c(=O)nc(SCc3ccccc3C)n(C3CC3)c2n1 the AC50 [1] was 12.6 µM [falling, partial curve].

For COCCn1c(=NC(=O)c2ccc3c(c2)OCCO3)sc2cc(C(=O)OC)ccc21, the AC50 [1] was 3.98 µM [falling, full curve].

With COc1ccc(C(=O)OC2=C(C(=O)c3ccccc3)N(C)S(=O)(=O)c3ccccc32)cc1OC the AC50 (measured here: IkB-luc green channel) was 3.16 µM [rising, full curve, poor fit] and the AC50 (measured here: control luc red channel) was 3.16 µM [rising, partial curve].

For Cc1cc(C)nc(-n2nc(C)c3c2NC(=O)CC3c2cccc(O)c2)n1 (stereo unspecified), the AC50 [1] was 0.0501 µM [falling, full curve].

With COC(=O)CSC1=NS(=O)(=O)c2ccccc21 the AC50 [1] was 7.94 µM [rising, partial curve] [measured here: IkB-luc green channel].

With CCOC(=O)c1ccc2c(c1)N(Cc1ccc(F)cc1Cl)C(=O)c1ccccc1S2(=O)=O the AC50 [1] was 2.51 µM [rising, single point].
